# Test results: patent US9732131B2, “Identification and use of novopeptides for the treatment of cancer” (Calviri Inc., priority 2006, dated 2017)
# For some assays here: The expression values are mRNA levels of the gene; the protein chain is shown to identify it.
# Experiments:
# tumor vs. normal cells = assay: RNA expression ratio of the FS variant in tumor vs. normal cells; design: species or system human; details: for RNA expression ratio: tumor vs normal cells; for RNA (expression ratio of the FS variant in tumor vs. normal cells): Table 2b
# tumor cells = assay: RNA extraction and sequencing to verify FS variant expression in tumor cells; design: species or system human
# [1] = system: Tubo tumor, a mouse breast cancer cell line; assay: RT-PCR confirmation of FS sequence in cDNA of Tubo tumor
# [2] = system: human tumor cell lines (MCF-7, SW480, DU-145) vs normal lung, breast, colon cDNA; assay: PCR and inspection of electrophoresis gel band intensities, tumor vs normal cDNA; details: for amplification of FS variant cDNA: MCF-7, SW480, DU-145 tumor lines vs normal lung, breast, colon (FIGS. 7a-7c); for RNA expression in tumor cells versus normal cells: PCR and inspection of electrophoresis gel band intensities
# [3] = system: human pancreas tumor samples; assay: Quantitative PCR of FS SMC-1A in fresh pancreas tumor samples
substance,measurement,setting,value
ARRG (Synthetic or recombinant sequence) [C7orf24],RNA expression ratio,tumor vs. normal cells,3.6 ×
CPAEIK (Synthetic or recombinant sequence) [ZWILCH],RNA expression ratio,tumor vs. normal cells,10.4 ×
same,expression of the FS variant in tumor cells,tumor cells,confirmed
FS RBM: mouse novopeptide whose upstream in-frame portion aligns with the mouse Rbm14 gene (GRVIECDVVKGSCQDGEAVHWKSAPGGHRAGDPLTLRAVREGAGM; Synthetic or recombinant sequence),presence of sequence in cDNA of Tubo tumor,[1],confirmed by RT-PCR
FS THAP2: mouse novopeptide whose upstream in-frame portion aligns with the mouse Thap2 gene (FDFCTHIKSLVTFGLFLRGAGCSPSSFLL; Synthetic or recombinant sequence),presence of sequence in cDNA of Tubo tumor,[1],confirmed by RT-PCR
GCCGIYCHEEPQREDSSI (Synthetic or recombinant sequence) [SMC1L1],RNA (expression ratio of the FS variant in tumor vs. normal cells),tumor vs. normal cells,98X
GTGCISAIPH (Synthetic or recombinant sequence) [STYXL1],amplification of FS variant cDNA,[2],"present in tumor cells, but not present in cDNA from normal lung, breast and colon"
same,RNA expression ratio,tumor vs. normal cells,2.0 ×
same,expression of the FS variant in tumor cells,tumor cells,verified
GWLQ (Synthetic or recombinant sequence) [DNPEP],RNA expression in tumor cells versus normal cells,[2],exceeding that in normal cells
same,expression of the FS variant in tumor cells,tumor cells,verified
IFP (SANRWEQVIFP; Synthetic or recombinant sequence) [DTYMK],RNA expression in tumor cells versus normal cells,[2],exceeding that in normal cells
same,expression of the FS variant in tumor cells,tumor cells,confirmed
IPKVFLKI (chain 1 EQLACIMEIPKVFLKI; Synthetic or recombinant sequence) [DYRK4],RNA expression in tumor cells versus normal cells,[2],exceeding that in normal cells
same,expression of the FS variant in tumor cells,tumor cells,confirmed
MPWTILPGRTNSTIPKSSNKKTSQATRGDHWKWSSSRPIVQK (Synthetic or recombinant sequence) [HNRPUL1],amplification of FS variant cDNA,[2],"present in tumor cells, but not present in cDNA from normal lung, breast and colon"
same,RNA expression in tumor cells versus normal cells,[2],exceeding that in normal cells
same,expression of the FS variant in tumor cells,tumor cells,confirmed
"NGSGCSGVYCHEEPQGEDSSV [FS SMC-1A, novopeptide from a frameshift of the SMC1A gene]",pancreas tumors overexpressing the FS compared to normal wild type sequence,[3]; four fresh human pancreas tumor samples,three of four
same,Relative Expression Level,[3]; sample Panc-C,2.69
same,Relative Expression Level,[3]; sample Panc-E,30.7
same,Relative Expression Level,[3]; sample Panc-F,1.15
same,Relative Expression Level,[3]; sample Panc-G,0.512
"NGSGKSNVMDALSFVMGEKIAN (Synthetic or recombinant sequence) [WT SMC-1A, reference compound]",Relative Expression Level,[3]; sample Panc-C,0.094
same,Relative Expression Level,[3]; sample Panc-E,0.852
same,Relative Expression Level,[3]; sample Panc-F,0.26
same,Relative Expression Level,[3]; sample Panc-G,0.696
NPCQLLKPMVA (Synthetic or recombinant sequence) [KIAA1458],RNA (expression ratio of the FS variant in tumor vs. normal cells),tumor vs. normal cells,6.3X
PWMCKKYYRLL (Synthetic or recombinant sequence) [HIP 14],RNA (expression ratio of the FS variant in tumor vs. normal cells),tumor vs. normal cells,4X
QFWCLWFCYDKCFWN (Synthetic or recombinant sequence) [BCL2L13],amplification of FS variant cDNA,[2],"from three different human tumor cell lines, but not cDNA obtained from normal tissue"
same,RNA expression in tumor cells versus normal cells,[2],exceeding that in normal cells
RCAATSMDNSMTSKSCSE (Synthetic or recombinant sequence) [PPP4C],RNA expression in tumor cells versus normal cells,[2],exceeding that in normal cells
RGPL (Synthetic or recombinant sequence) [COPS6],RNA (expression ratio of the FS variant in tumor vs. normal cells),tumor vs. normal cells,9.75X
RKLNILMLLGH (chain 1 HIHTPLLDRKLNILMLLGH; Synthetic or recombinant sequence) [RIPK2],RNA expression in tumor cells versus normal cells,[2],exceeding that in normal cells
same,expression of the FS variant in tumor cells,tumor cells,confirmed
RMLGPRPPRAARFR (Synthetic or recombinant sequence) [MAP3K10],RNA expression in tumor cells versus normal cells,[2],exceeding that in normal cells
SAHKESSFDIICQV (Synthetic or recombinant sequence) [CIAPIN1],RNA expression ratio,tumor vs. normal cells,2.6 ×
SCWWMPSLLPNIYVLDRLLVHA TKRGEYEPRK (SCWWMPSLLPNIYVLDRLLVHATKRGEYEPRK) [MTCH2],RNA (expression ratio of the FS variant in tumor vs. normal cells),tumor vs. normal cells,2.2X
